Experimental data reported in PubChem BioAssay AID720517 (National Center for Advancing Translational Sciences (NCATS), 2013).
Inconclusive results, whose numbers are uncertain, are shown. Potencies beside an inconclusive call are fits to weak or partial responses and may not hold up.

Assay: qHTS for Inhibitors of Cell Surface uPA Generation: FP59 Counterscreen for Cherry-picked Compounds
Details: FP59 anthrax toxin cytotoxicity counterscreen, cells; active means well fitted activation curve with a large enough effect; inconclusive means small, poorly fitted or top-dose-only effect; inactive means flat fitted curve, though single readings scatter
Potency means the concentration at half of the fitted maximal effect.

Structure (SMILES) | Potency
CCC(C)C1NC(=O)C2CCCN2C(=O)C(CC(C)C)OC(=O)CCNC(=O)C(C)N(C)C(=O)C(C(C)C)N(C)C1=O (configuration not stated) | inconclusive: 4.65 µM [activator, single point]
C=C1C(=O)O[C@@H]2C[C@@H](C)[C@@H]3C4OC4C(=O)[C@@]3(C)[C@@H](O)[C@H]12 (some centres not stated) | inconclusive: 18.5 µM [activator, partial curve]
